Results as given in PubChem BioAssay AID504467 (National Center for Advancing Translational Sciences (NCATS), 2011).
In all, about 330,000 compounds went through this assay and about 7,700 (2.3%) were called active. The shares of active, inactive and inconclusive entries below differ from those in the screen. Calls come from the whole dose curve; as a rule, active = well fitted inhibition curve with a large enough effect; inconclusive = small, poorly fitted or top-dose-only effect, or effect the other way; inactive = flat fitted curve, though single readings scatter. A potency beside an inconclusive call is a rough fit, not a confirmed value.

Experiment: qHTS screen for small molecules that inhibit ELG1-dependent DNA repair in human embryonic kidney (HEK293T) cells expressing luciferase-tagged ELG1; note: nearly all actives have a fitted effect of over 55% in size
Conditions: HEK293T ELG1-luciferase reporter, luminescence, 16 h, DNA damage induced by 5-fluorouridine; activity change, negative = inhibition: at 46.1 µM (top of the series)
Summary of the method: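 In this reporter screen, reduction of luminescence relative to DMSO vehicle indicated activity. Compounds and 5-fluorouridine were added together to 2,000 cells per well, incubated for 16 hr at 37 °C, then developed with ONE-Glo.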
% is set by controls: 0 for no effect and ±100 for the full control effect; potency is the fitted concentration of half-maximal effect.

SMILES	Potency	activity change, negative = inhibition
CCOC(=O)c1c(-c2ccccc2)csc1NC(=O)c1ccc(S(=O)(=O)N2CCOCC2)cc1	inconclusive: 7.31 µM [inhibitor, partial curve]	–
CCC(C)N(C)C1CCN(C(=S)Nc2cccc(OC)c2)CC1 (stereo not given)	inconclusive: 9.2 µM [activator, partial curve, poor fit]	–
COc1cc2cc(C(c3nnnn3C3CCCC3)N3CCc4ccccc43)c(=O)[nH]c2cc1OC (stereo not given)	–	inactive: -9.89%
COc1ccc(NC(=O)COC(=O)CCNS(=O)(=O)c2ccccc2)cc1OC	–	inactive: -1.81%
Cc1ccccc1C(=O)/C(C#N)=N/Nc1c(C)n(C)n(-c2ccccc2)c1=O	–	inactive: -6.44%
CC(NC(=O)/C(C#N)=C/c1cn(-c2ccccc2)nc1-c1ccc(F)cc1)c1ccccc1 (stereo not given)	inconclusive: 5.8 µM [inhibitor, partial curve]	–
CCNC(=S)NNC(=O)c1cc(Br)cs1	–	inactive: 0.925%
O=c1oc(-c2ccccc2)nc2sc3c(c12)CCC3	inconclusive: 23.1 µM [activator, single point]	–
S=C(NCc1ccc(Cl)cc1Cl)NC1CCCCC1	inconclusive: 29.1 µM [inhibitor, single point]	–
O=C(Nc1cccc(S(=O)(=O)N2CCCCCC2)c1)c1ccc(=O)[nH]c1	–	inactive: -15%
CC(=O)c1c[nH]c(C(=O)Nc2ccc(N3CCCCCC3)cc2)c1	inconclusive: 18.3 µM [activator, partial curve]	–
COc1ccc(OC)c(S(=O)(=O)N2CCN(c3ccccc3)CC2)c1	–	inactive: 3.94%
CCCCC[n+]1ccn(-c2nc3ccccc3nc2[N-]S(=O)(=O)c2ccccc2)c1	inconclusive: 25.9 µM [activator, partial curve]	–
Cc1ccc2[nH]c(C(=O)O)c(-c3ccccc3)c2c1	–	inactive: 3.44%
COc1ccccc1OCC(=O)NCC1CCCCC1	inconclusive: 29.1 µM [activator, single point]	–
Cc1ccc(CNc2ccc3c(c2)ncn3C(C)(C)C)cc1	inconclusive: 4.11 µM [activator, full curve]	–
CCc1ccc(NC(=O)C(=O)c2ccccc2NC(C)=O)cc1	inconclusive: 7.94 µM [activator, partial curve]	–
CC1CCCCC1NC(=O)CCCCCn1c(=S)[nH]c2ccccc2c1=O (stereo not given)	inconclusive: 25.9 µM [inhibitor, partial curve, poor fit]	–
Cn1c(C(=O)NCCN2CCOCC2)cc2c(=O)n(C)c3ccccc3c21	inconclusive: 20.6 µM [activator, partial curve, poor fit]	–
CCCn1c(SCC(=O)N2CCCc3ccccc32)nc2c1c(=O)n(C)c(=O)n2C	inconclusive: 0.651 µM [inhibitor, single point]	–

Shown comma-delimited: part of the list above
SMILES,Potency,"activity change, negative = inhibition"
CC(=O)c1c[nH]c(C(=O)Nc2ccc(N3CCCCCC3)cc2)c1,"inconclusive: 18.3 µM [activator, partial curve]",–
COc1ccc(OC)c(S(=O)(=O)N2CCN(c3ccccc3)CC2)c1,–,inactive: 3.94%
CCCCC[n+]1ccn(-c2nc3ccccc3nc2[N-]S(=O)(=O)c2ccccc2)c1,"inconclusive: 25.9 µM [activator, partial curve]",–
Cc1ccc2[nH]c(C(=O)O)c(-c3ccccc3)c2c1,–,inactive: 3.44%
